The text below walks through data of publication PMC5321741, “Arylmethylamino steroids as antiparasitic agents” (Nature Communications, 2017).

The subject of the data set is haem (FeIIIPPIX, π-π dimer). Kind of data set: spectrophotometric titration of haematin π-π dimer. It counts as binding. Particulars: 0.2 M HEPES pH 7.5, 25.0 °C.
With `COc1ccc2c(c1)CCC1C2CC[C@@]2(C)C1CC[C@H]2N` (stereo partly drawn) [1a], the “log β (FeIIIPPIX)2.substrate” value came to 12.0 ± 0.2.
On the same count and under the same terms, under `COc1ccc2c(c1)CCC1C2CCC2(C)C(NCc3ccccc3OC)CCC12` (stereo not drawn) [1i] stands 12.0 ± 0.2; under `COc1ccc2c(c1)CCC1C2CC[C@@]2(C)C1CC[C@H]2NCc1cc2ccccc2cc1O` (stereo partly drawn) [1o], 12.3 ± 0.2.
As for `COc1ccc2c(c1)CCC1C2CC[C@@]2(C)C1CC[C@@H]2N(CCCn1ccnc1)CCc1ccccn1` (stereo partly drawn) [STS 948], the “log KFeIIIPPIX.STS948” value is given as 6.09 ± 0.06.
Regarding `CCN(CC)CCCC(C)Nc1ccnc2cc(Cl)ccc12` (stereo not drawn) [chloroquine], the “log β (FeIIIPPIX)2.substrate” value was 13.17 ± 0.07.
As to `c1ccncc1` [pyr, pyridine, reference compound], the “log β (FeIIIPPIX)2.substrate” value is 2.25 ± 0.05.
